Laboratory results reported in PubChem BioAssay AID1487 (National Center for Advancing Translational Sciences (NCATS), 2009).
This is one part of the list. These are further read-outs of the screen, such as a control signal, another cell line or another target. No call is given for them. The list favours compounds with an active or inconclusive main result. Potencies come from curve fits of mixed quality, noted in brackets.

Test: qHTS Assay for Modulators of Lamin A Splicing
Conditions: HeLa LMNA splicing GFP/RFP minigene ratio, 48 h
How it was run: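 S3 HeLa cells stably expressing lamin A-EGFP splicing minigene plus DsRed2, 600 cells/well, 48 h compound exposure at 37C. Laser-scanning cytometry; analysed as GFP (500-530 nm)/RFP (575-640 nm) total intensity ratio; 0.5% DMSO vehicle.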

[1] = measured here: GFP splicing reporter channel
[2] = measured here: RFP viability control channel

| SMILES | AC50 [1] | AC50 [2] |
| --- | --- | --- |
| O=C(CCC(=O)N1CC2CCCN2c2ccccc21)NCc1ccccc1 (stereo unspecified) | 0.0794 µM [falling, full curve] | 0.0891 µM [falling, full curve] |
| N#C/C(=C\c1ccc(C(=O)O)cc1)S(=O)(=O)c1cc(Br)ccc1Br | – | 3.98 µM [falling, single point] |
| COc1ccc(CNC(=O)c2ccc3c(c2)N(C)C(=O)C2CCCCN32)cc1OC (stereo unspecified) | – | 14.1 µM [rising, single point] |
| O=Cc1s/c(=N\S(=O)(=O)c2ccccc2)n(CCCCl)c1Cl | 0.355 µM [falling, full curve, poor fit] | 12.6 µM [falling, partial curve] |
| COc1ccc(Br)cc1/C=N/NC(=O)c1cc(OC)c(OC)c(OC)c1 | – | 10 µM [rising, partial curve, poor fit] |
| Cc1ccc(-c2cccc(CN3CCN(C4CCN(C(C)C)CC4)C(CCO)C3)c2)o1 (stereo unspecified) | 25.1 µM [falling, partial curve, poor fit] | – |
| Cc1nn(Cc2ccc(C(=O)N3c4ccc(F)cc4CCC3C)o2)c(C)c1Br (stereo unspecified) | – | 20 µM [rising, single point] |
| CC1(C)CC(=O)c2c(Cc3ccccc3)noc2C1 | 7.08 µM [falling, full curve, poor fit] | 6.31 µM [falling, full curve, poor fit] |
| O=C(COC(=O)c1sc2cc(Cl)ccc2c1Cl)Nc1ncc(Cl)cc1Cl | 31.6 µM [rising, single point] | – |
| CCOC(=O)/C(C#N)=C/c1c(OCC)n(CC)c2ccccc12 | – | 25.1 µM [rising, single point] |
| Cc1oc(-c2ccc(Cl)cc2)nc1Cn1c(=O)cc(C)c2c(C)nn(-c3cccc(F)c3)c21 | 0.00447 µM [falling, full curve] | 0.00501 µM [falling, full curve, poor fit] |
| CCn1ncc(C2=NOC(C(=O)Nc3cnn(C45CC6CC(CC(C6)C4)C5)c3)C2)c1C (stereo unspecified) | 5.62 µM [rising, partial curve] | 15.8 µM [rising, partial curve] |
| N#CC1=C(N)Oc2cc(Nc3ccccc3)ccc2C1c1ccncc1 (stereo unspecified) | 15.8 µM [falling, single point] | 35.5 µM [falling, single point] |
| COc1ccc(NC(=O)C(=O)NCC(c2ccc3c(c2)OCO3)N2CCN(C)CC2)cc1 (stereo unspecified) | 0.0355 µM [falling, full curve, poor fit] | 0.0562 µM [falling, full curve, poor fit] |
